Laboratory results as given in the supplement of paper PMC10849652.
Some of the results follow.

Protein sequences, listed by entry. Tags and fused reporters are not part of them. Lines headed by an entry give the natural chain unless they say otherwise; changes in a name come on top.
UniProt P47756, whole entry, looked up: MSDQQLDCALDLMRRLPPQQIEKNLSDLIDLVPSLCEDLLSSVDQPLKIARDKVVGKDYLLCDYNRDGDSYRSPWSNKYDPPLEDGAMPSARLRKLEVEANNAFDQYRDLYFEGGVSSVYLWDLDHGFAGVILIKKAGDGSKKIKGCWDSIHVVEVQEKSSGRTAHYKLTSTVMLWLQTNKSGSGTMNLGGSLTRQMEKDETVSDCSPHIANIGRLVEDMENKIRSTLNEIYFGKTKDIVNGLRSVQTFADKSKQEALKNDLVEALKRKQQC
UniProt Q8N1A6: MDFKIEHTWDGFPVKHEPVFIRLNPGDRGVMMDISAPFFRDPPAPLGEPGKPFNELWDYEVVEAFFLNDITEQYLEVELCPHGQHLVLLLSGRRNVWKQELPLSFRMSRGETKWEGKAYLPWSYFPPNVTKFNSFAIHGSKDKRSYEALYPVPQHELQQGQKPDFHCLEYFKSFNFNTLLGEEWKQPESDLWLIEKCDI
UniProt Q8N5S9: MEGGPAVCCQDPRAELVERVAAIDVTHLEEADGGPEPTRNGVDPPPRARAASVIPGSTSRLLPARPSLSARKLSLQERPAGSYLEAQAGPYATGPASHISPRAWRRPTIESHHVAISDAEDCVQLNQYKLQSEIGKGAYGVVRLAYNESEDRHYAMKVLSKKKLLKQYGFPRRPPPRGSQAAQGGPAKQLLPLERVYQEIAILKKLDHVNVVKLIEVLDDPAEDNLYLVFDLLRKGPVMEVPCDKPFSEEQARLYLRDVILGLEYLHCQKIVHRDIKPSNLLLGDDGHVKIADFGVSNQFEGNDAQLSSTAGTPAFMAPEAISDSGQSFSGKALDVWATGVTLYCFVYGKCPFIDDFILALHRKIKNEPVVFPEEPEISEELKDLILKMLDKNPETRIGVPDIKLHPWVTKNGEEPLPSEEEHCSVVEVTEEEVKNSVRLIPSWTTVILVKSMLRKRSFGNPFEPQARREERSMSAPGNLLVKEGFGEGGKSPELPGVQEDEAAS
UniProt P22676: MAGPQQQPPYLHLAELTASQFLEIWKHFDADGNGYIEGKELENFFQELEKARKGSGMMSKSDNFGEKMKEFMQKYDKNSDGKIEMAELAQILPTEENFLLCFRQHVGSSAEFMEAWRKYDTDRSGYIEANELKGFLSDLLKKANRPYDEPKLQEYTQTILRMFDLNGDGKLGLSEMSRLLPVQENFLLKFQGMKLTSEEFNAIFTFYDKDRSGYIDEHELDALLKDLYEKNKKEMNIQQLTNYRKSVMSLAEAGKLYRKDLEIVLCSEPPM
UniProt Q9Y6W3: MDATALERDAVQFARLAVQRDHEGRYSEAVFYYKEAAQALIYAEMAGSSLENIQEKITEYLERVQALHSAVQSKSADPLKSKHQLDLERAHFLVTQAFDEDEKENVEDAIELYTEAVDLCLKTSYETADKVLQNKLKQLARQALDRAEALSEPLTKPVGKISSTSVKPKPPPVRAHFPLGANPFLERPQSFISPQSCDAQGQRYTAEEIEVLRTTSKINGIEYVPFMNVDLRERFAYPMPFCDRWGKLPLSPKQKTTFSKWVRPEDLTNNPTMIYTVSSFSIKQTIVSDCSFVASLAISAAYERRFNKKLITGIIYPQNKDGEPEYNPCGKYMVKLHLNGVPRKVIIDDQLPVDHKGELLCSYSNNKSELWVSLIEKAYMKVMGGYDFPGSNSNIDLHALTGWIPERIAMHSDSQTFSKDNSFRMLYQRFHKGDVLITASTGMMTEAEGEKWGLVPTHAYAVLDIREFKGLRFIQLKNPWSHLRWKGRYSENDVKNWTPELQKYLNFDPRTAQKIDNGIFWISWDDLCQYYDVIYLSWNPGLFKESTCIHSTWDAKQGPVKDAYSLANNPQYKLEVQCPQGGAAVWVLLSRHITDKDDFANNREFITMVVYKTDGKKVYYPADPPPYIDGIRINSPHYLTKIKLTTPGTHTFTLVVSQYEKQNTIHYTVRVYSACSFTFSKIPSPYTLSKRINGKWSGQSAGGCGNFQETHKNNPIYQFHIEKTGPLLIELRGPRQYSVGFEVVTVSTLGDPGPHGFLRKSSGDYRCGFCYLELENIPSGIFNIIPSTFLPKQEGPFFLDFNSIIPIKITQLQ
UniProt Q9Y2V0: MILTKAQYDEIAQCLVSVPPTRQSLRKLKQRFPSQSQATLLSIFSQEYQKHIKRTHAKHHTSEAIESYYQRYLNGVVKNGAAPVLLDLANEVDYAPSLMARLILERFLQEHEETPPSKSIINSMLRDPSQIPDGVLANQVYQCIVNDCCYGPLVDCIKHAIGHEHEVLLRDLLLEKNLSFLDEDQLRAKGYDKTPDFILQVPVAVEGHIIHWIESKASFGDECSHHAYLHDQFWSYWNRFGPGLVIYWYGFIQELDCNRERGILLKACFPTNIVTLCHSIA
UniProt Q9BPX7: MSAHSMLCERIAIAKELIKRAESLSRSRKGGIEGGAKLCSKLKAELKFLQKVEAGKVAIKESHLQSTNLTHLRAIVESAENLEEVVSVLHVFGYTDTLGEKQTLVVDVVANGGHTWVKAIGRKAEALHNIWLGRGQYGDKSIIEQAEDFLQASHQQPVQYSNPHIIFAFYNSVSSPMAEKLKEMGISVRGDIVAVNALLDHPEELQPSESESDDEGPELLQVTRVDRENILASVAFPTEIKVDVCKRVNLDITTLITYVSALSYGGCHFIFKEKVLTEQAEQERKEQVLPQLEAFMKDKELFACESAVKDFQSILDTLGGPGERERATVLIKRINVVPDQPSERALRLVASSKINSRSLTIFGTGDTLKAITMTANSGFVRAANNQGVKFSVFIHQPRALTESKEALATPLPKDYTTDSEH
UniProt Q96K31: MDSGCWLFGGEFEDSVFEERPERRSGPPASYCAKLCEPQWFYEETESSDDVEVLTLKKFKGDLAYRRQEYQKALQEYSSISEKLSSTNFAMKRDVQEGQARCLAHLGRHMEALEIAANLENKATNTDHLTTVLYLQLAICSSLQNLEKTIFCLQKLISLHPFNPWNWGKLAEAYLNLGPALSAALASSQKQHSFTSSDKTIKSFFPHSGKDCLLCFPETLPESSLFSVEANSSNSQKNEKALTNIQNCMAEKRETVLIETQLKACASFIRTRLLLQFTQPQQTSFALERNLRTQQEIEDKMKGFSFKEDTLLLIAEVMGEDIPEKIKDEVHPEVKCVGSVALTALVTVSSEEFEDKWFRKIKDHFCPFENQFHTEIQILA
UniProt Q96GQ5: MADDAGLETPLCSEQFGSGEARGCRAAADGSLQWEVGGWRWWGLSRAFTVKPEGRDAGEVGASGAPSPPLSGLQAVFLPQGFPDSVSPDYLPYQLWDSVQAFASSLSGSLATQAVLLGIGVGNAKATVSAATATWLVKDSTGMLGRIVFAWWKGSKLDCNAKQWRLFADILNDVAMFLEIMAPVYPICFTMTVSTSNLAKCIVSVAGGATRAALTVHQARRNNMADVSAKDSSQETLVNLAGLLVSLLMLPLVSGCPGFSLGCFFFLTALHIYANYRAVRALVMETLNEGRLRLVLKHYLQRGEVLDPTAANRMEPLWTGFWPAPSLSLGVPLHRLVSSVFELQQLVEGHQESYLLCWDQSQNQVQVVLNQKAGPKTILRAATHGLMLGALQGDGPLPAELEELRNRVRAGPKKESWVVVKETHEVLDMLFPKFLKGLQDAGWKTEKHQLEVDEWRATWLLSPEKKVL
UniProt Q8N6N3: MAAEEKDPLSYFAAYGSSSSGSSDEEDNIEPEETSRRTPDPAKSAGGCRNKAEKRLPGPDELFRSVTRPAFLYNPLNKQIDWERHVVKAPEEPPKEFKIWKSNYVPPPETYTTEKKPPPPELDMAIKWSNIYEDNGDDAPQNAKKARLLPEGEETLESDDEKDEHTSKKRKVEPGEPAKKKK
UniProt Q86VP6: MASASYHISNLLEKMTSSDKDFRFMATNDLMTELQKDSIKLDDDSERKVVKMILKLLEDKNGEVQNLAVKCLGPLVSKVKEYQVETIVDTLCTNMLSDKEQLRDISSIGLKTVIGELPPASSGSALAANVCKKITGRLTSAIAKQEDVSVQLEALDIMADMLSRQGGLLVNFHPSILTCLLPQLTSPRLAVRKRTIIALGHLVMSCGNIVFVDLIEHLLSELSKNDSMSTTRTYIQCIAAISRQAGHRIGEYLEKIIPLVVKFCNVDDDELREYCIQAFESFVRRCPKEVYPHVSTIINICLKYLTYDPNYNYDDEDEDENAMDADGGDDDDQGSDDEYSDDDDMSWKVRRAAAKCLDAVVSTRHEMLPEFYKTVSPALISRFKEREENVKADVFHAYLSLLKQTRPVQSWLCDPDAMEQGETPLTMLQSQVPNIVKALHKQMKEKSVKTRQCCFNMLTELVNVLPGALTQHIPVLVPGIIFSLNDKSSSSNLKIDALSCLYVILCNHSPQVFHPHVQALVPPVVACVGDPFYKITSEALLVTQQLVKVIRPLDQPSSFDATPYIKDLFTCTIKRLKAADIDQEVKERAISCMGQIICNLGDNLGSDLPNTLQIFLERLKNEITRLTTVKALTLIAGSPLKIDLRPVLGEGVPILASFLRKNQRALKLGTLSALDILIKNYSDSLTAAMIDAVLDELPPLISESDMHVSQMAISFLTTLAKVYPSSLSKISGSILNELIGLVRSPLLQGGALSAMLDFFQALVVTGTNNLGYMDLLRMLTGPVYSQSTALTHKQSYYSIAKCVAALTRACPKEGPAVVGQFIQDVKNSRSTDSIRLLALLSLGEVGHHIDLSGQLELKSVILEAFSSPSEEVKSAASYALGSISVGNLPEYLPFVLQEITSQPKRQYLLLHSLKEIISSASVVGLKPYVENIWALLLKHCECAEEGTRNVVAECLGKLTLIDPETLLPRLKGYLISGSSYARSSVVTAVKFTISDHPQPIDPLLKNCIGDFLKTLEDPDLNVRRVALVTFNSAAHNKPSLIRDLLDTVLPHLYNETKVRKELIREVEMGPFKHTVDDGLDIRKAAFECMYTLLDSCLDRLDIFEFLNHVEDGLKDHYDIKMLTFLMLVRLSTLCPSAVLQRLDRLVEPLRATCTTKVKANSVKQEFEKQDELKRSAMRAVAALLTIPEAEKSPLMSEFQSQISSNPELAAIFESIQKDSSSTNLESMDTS
UniProt Q9Y297: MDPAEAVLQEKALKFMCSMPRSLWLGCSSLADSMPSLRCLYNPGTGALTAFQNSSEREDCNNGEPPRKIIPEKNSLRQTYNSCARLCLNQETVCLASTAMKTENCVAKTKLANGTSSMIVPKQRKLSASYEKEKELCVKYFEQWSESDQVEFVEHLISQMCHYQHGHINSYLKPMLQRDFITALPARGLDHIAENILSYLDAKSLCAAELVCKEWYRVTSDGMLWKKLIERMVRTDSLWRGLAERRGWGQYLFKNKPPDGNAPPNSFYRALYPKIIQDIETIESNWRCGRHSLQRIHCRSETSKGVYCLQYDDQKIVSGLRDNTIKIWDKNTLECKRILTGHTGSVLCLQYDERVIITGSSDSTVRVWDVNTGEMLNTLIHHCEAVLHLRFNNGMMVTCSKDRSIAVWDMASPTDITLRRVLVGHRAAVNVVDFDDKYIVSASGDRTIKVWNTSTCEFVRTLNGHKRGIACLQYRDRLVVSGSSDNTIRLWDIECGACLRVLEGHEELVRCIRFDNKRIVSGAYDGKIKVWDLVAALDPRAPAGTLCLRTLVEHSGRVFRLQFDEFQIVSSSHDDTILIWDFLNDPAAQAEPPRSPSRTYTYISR
UniProt Q6UWU4: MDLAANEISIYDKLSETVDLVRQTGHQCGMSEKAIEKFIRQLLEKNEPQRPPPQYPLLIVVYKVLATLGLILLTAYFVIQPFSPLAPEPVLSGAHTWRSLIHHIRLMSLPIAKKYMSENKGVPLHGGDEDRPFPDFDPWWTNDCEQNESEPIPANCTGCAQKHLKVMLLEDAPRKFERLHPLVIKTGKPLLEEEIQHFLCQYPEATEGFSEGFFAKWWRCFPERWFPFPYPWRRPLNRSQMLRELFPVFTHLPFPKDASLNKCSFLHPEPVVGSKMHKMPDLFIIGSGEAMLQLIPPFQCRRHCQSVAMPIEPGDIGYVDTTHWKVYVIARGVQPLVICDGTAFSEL
UniProt Q9BSU1: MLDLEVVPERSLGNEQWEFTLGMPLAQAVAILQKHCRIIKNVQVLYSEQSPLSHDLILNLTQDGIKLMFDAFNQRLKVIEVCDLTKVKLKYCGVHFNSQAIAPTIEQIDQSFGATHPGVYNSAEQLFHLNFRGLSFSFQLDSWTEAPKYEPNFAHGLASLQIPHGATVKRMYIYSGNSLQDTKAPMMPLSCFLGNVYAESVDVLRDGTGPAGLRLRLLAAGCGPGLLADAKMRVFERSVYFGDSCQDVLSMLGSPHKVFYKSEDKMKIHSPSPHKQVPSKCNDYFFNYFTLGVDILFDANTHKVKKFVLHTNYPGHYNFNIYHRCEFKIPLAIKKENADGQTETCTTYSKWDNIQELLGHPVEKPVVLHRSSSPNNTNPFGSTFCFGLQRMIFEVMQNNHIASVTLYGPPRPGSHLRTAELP

Columns and labels:
Assay in all cases: log2 fold change, soluble protein after heating vs DMSO (PISA); higher = thermal stabilisation; K562 lysate, 10 uM; active = over 0.2 and 3.5 SD of the protein, either way, in both replicates (recomputed)
erlotinib = compound: C#Cc1cccc(Nc2ncnc3cc(OCCOC)c(OCCOC)cc23)c1 [erlotinib]
In short: (§1)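 To prepare the extract, K562 pellets were dounce-homogenised in PBS pH 7.4 with 1 mM MgCl2, giving crude material at 1 mg/mL protein. This was treated with 10 μM compound for 30 min, then heated in aliquots for 3 min over 48°C-58°C before pooling and addition of NP-40 to 0.5% at 4°C. Centrifugation at 21,000xg for 90 min left soluble protein in the supernatant, which TMTpro 16plex LC-MS/MS quantified with equalised channel sums. Results are log-two fold changes in thermal stability compared with solvent controls, from duplicates.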

[1] = compound: C/C(=N\NC(=O)C1=CC(=CC=C1)S(=O)(=O)N2CCOCC2)/C3=C(C=CC(=C3)Cl)O
In short: as §1

[2] = compound: C1=CC(=CC=C1C2=NC3=C(N2)C=C(C=C3)C(=O)N)OC4=CC=C(C=C4)Cl
In short: as §1

[3] = compound: C1=CC2=C(C=CC(=C2)/C=C\3/C(=O)NC(=NCC4=CC=CS4)S3)N=C1
In short: as §1

[4] = compound: C1=CC2=NC=CN=C2C=C1/C=C/3\C(=O)NC(=O)S3
In short: as §1

[5] = compound: C1=CC=C(C=C1)C2=NC(=C(N2)C3=CC=NC=C3)C4=CC(=C(C=C4)Cl)O
In short: as §1

[6] = compound: C1=CC=C2C(=C1)C3=NNC4=CC=CC(=C43)C2=O
In short: as §1

[7] = compound: C1CCN(C1)C(=O)NC2=CC=CC(=C2)NC3=NC=C(C(=N3)NCCC4=CN=CN4)Br
In short: as §1

[8] = compound: C1CN(CCC1(CC2=CC=C(C=C2)Cl)N)C3=NC=NC4=C3C=CN4
In short: as §1

IRAK-1-4 Inhibitor I = compound: C1COCCN1CCN2C3=CC=CC=C3N=C2NC(=O)C4=CC(=CC=C4)[N+](=O)[O-] [IRAK-1-4 Inhibitor I]
In short: as §1

ibrutinib = compound: C=CC(=O)N1CCC[C@@H](n2nc(-c3ccc(Oc4ccccc4)cc3)c3c(N)ncnc32)C1 [ibrutinib]
In short: as §1

[9] = compound: CC(=O)c1cnc2ccc(-c3cc(Cl)c(O)c(Cl)c3)nc2c1N[C@H]1CC[C@H](CN(C)C)CC1
In short: as §1

ralimetinib = compound: CC(C)(C)Cn1c(N)nc2ccc(-c3[nH]c(C(C)(C)C)nc3-c3ccc(F)cc3)nc21 [ralimetinib]
In short: as §1

[10] = compound: CC(C)(O)CC(=O)NCCn1ccc2ncnc(Nc3ccc(Oc4cccc(C(F)(F)F)c4)c(Cl)c3)c21
In short: as §1

[11] = compound: CC(C)C1=C2N=C(C=C(N2N=C1)NCC3=CC=CC=C3)NCCCCCCN
In short: as §1

[12] = compound: CC1=C(C(CC(=O)N1)C2=CC=C(C=C2)C(F)(F)F)C(=O)NC3=C(C=C4C(=C3)C=NN4)F
In short: as §1

[13] = compound: CC1=C(C2=C(C=C1)C(=O)C3=CC=CC=C3N2CCCN)C
In short: as §1

[14] = compound: CC1=C(C=C(C=C1)NC(=O)C2=CC(=CC=C2)C(C)(C)C#N)NC3=CC4=C(C=C3)N=CN(C4=O)C
In short: as §1

[15] = compound: CC1=C(C=C(C=C1)NC(=O)C2=CC(=CC=C2)N(C)C)NC(=O)C3=CC=C(C=C3)O
In short: as §1

[16] = compound: CC1=CC=C(C=C1)SC2=C3C=C(SC3=CN=C2)C(=O)N
In short: as §1

| Target | log2 fold change (erlotinib) | log2 fold change [1] | log2 fold change [2] | log2 fold change [3] | log2 fold change [4] | log2 fold change [5] | log2 fold change [6] | log2 fold change [7] | log2 fold change [8] | log2 fold change (IRAK-1-4 Inhibitor I) | log2 fold change (ibrutinib) | log2 fold change [9] | log2 fold change (ralimetinib) | log2 fold change [10] | log2 fold change [11] | log2 fold change [12] | log2 fold change [13] | log2 fold change [14] | log2 fold change [15] | log2 fold change [16] |
| --- | --- | --- | --- | --- | --- | --- | --- | --- | --- | --- | --- | --- | --- | --- | --- | --- | --- | --- | --- | --- |
| CAPZB isoform 2 (UniProt P47756) | inactive: -0.005 | inactive: -0.408 | inactive: 0.03 | inactive: -0.014 | inactive: -0.015 | inactive: 0.009 | inactive: -0.036 | inactive: 0.023 | inactive: 0.019 | inactive: -0.035 | inactive: -0.103 | inactive: -0.012 | inactive: -0.041 | inactive: -0.032 | inactive: -0.042 | inactive: -0.029 | inactive: 0.028 | inactive: 0.028 | inactive: -0.01 | inactive: -0.016 |
| C4orf33 (UniProt Q8N1A6) | inactive: -0.071 | inactive: -0.033 | inactive: 0.014 | inactive: 0.116 | inactive: -0.026 | inactive: 0.001 | inactive: -0.001 | inactive: -0.014 | inactive: 0.035 | inactive: 0.036 | inactive: 0.002 | inactive: -0.015 | inactive: -0.02 | inactive: -0.012 | inactive: 0.036 | inactive: -0.034 | inactive: 0.008 | inactive: 0.066 | inactive: 0.017 | inactive: 0.011 |
| CAMKK1 isoform 2 (UniProt Q8N5S9) | inactive: -0.037 | inactive: 0.042 | inactive: -0.003 | inactive: -0.085 | inactive: 0.043 | inactive: -0.01 | inactive: 0.042 | inactive: -0.076 | inactive: -0.069 | inactive: 0.001 | inactive: 0.027 | inactive: 0.189 | inactive: 0.063 | inactive: -0.153 | inactive: -0.059 | inactive: -0.008 | inactive: -0.055 | inactive: 0.014 | inactive: 0.004 | inactive: 0.138 |
| CALB2 (UniProt P22676) | inactive: 0.021 | inactive: 0.045 | inactive: -0.04 | inactive: -0.103 | inactive: -0.077 | inactive: 0.02 | inactive: 0.043 | inactive: 0.056 | inactive: 0.065 | inactive: 0.08 | inactive: 0.085 | inactive: 0.016 | inactive: 0 | inactive: -0.083 | inactive: -0.093 | inactive: -0.025 | inactive: -0.116 | inactive: 0.028 | inactive: -0.039 | inactive: -0.014 |
| CAPN7 (UniProt Q9Y6W3) | inactive: -0.004 | inactive: -0.088 | inactive: 0.027 | inactive: 0.003 | inactive: -0.026 | inactive: -0.124 | inactive: -0.034 | inactive: -0.042 | inactive: 0.027 | inactive: 0.027 | inactive: 0.022 | inactive: -0.004 | inactive: 0.021 | inactive: -0.002 | inactive: 0.01 | inactive: 0.004 | inactive: -0.006 | inactive: 0.039 | inactive: 0.049 | inactive: -0.029 |
| C18orf25 isoform 2 (UniProt Q96B23) | inactive: 0.031 | inactive: 0.098 | inactive: -0.059 | inactive: -0.002 | inactive: 0.185 | inactive: 0.055 | inactive: -0.011 | inactive: -0.01 | inactive: -0.063 | inactive: 0.003 | inactive: 0.126 | inactive: 0.1 | inactive: -0.065 | inactive: -0.027 | inactive: -0.013 | inactive: -0.088 | inactive: 0.015 |  | inactive: -0.017 | inactive: -0.076 |
| C11orf98 (UniProt E9PRG8) | inactive: 0 | inactive: -0.447 | inactive: 0.01 | inactive: -0.042 | inactive: 0.01 | inactive: 0.01 | inactive: 0.035 | inactive: 0.012 | inactive: -0.007 | inactive: -0.021 | inactive: -0.008 | inactive: -0.024 | inactive: -0.035 | inactive: -0.026 | inactive: -0.004 | inactive: 0.005 | inactive: -0.031 | inactive: 0.033 | inactive: -0.011 | inactive: 0.008 |
| C15orf41 (UniProt Q9Y2V0) | inactive: 0.008 | inactive: 0.073 | inactive: 0.032 | inactive: 0.112 | inactive: -0.097 | inactive: 0.014 | inactive: -0.04 | inactive: -0.028 | inactive: -0.076 | inactive: -0.012 | inactive: -0.028 | inactive: -0.013 | inactive: -0.018 | inactive: -0.029 | inactive: 0.063 | inactive: 0.006 | inactive: 0.045 | inactive: 0.023 | inactive: 0.13 | inactive: -0.106 |
| C7orf25 isoform 2 (UniProt Q9BPX7) | inactive: 0.06 | inactive: 0.203 | inactive: 0.101 | inactive: -0.012 | inactive: 0.062 | inactive: -0.002 | inactive: -0.306 | inactive: 0.005 | inactive: 0.138 | inactive: 0.024 | inactive: 0.058 | inactive: -0.1 | inactive: 0.064 | inactive: -0.008 | inactive: -0.088 |  | inactive: -0.004 | inactive: 0.01 | inactive: -0.005 | inactive: -0.045 |
| C8orf76 (UniProt Q96K31) | inactive: -0.015 | inactive: -0.061 | inactive: 0.033 | inactive: 0.045 | inactive: -0.057 | inactive: 0.02 | inactive: -0.034 | inactive: 0.033 | inactive: -0.025 | inactive: 0.026 | inactive: -0.02 | inactive: -0.025 | inactive: -0.018 | inactive: -0.065 | inactive: -0.004 | inactive: 0.043 | inactive: -0.005 | inactive: -0.01 | inactive: 0.001 | inactive: -0.03 |
| C16orf58 (UniProt Q96GQ5) | inactive: -0.013 | inactive: -0.001 | inactive: -0.145 | inactive: 0.021 | inactive: 0.02 | inactive: 0.044 | inactive: -0.113 | inactive: 0 | inactive: -0.037 | inactive: -0.027 | inactive: 0.008 | inactive: 0.002 | inactive: -0.025 | inactive: 0 | inactive: 0.009 | inactive: 0.071 | inactive: -0.015 | inactive: 0.03 | inactive: -0.044 | inactive: 0.011 |
| C1orf52 (UniProt Q8N6N3) | inactive: -0.023 | inactive: -0.036 | inactive: 0.01 | inactive: 0.014 | inactive: -0.027 | inactive: 0.037 | inactive: 0.03 | inactive: 0.003 | inactive: -0.01 | inactive: 0.009 | inactive: 0.035 | inactive: -0.007 | inactive: -0.039 | inactive: 0.048 | inactive: 0.022 | inactive: 0.044 | inactive: -0.033 | inactive: 0.014 | inactive: -0.003 | inactive: -0.015 |
| CAND1 (UniProt Q86VP6) | inactive: 0.003 | inactive: -0.064 | inactive: 0.026 | inactive: -0.002 | inactive: 0.026 | inactive: 0.005 | inactive: 0.006 | inactive: -0.007 | inactive: 0.018 | inactive: 0.011 | inactive: -0.004 | inactive: -0.003 | inactive: 0.004 | inactive: -0.021 | inactive: 0.007 | inactive: -0.004 | inactive: -0.001 | inactive: 0.02 | inactive: -0.013 | inactive: -0.022 |
| BTRC (UniProt Q9Y297) | inactive: 0.002 | inactive: 0.085 | inactive: -0.078 | inactive: 0.001 | inactive: 0 | inactive: -0.007 | inactive: 0.029 | inactive: -0.138 | inactive: -0.028 | inactive: 0.018 | inactive: 0.026 | inactive: 0.012 | inactive: 0.068 | inactive: -0.033 | inactive: 0.045 | inactive: 0.015 |  |  | inactive: 0.075 | inactive: -0.002 |
| C6orf89 isoform 2 (UniProt Q6UWU4) | inactive: -0.008 | inactive: 0.041 | inactive: 0.001 | inactive: 0.015 | inactive: -0.009 | inactive: 0.043 | inactive: -0.111 | inactive: 0.022 | inactive: 0.026 | inactive: -0.002 | inactive: 0.003 | inactive: 0.063 | inactive: 0.012 | inactive: -0.024 | inactive: -0.047 | inactive: 0.069 | inactive: 0.026 | inactive: -0.041 | inactive: -0.002 | inactive: 0.082 |
| C16orf70 (UniProt Q9BSU1) | inactive: 0.023 | inactive: 0.194 | inactive: -0.06 | active: 0.271 | inactive: 0.033 | inactive: -0.128 | inactive: -0.193 | inactive: 0.016 | inactive: 0.055 | inactive: -0.021 | inactive: -0.048 | inactive: -0.011 | inactive: 0.034 | inactive: 0.031 | inactive: -0.068 |  | inactive: -0.043 | inactive: 0 | inactive: 0.058 | inactive: -0.024 |
